Results deposited as PubChem BioAssay AID1671195 (Yale University, 2021).
In all, the deposit lists about 22,000 reagents; this is a part drawn at random. Of all reagents, about 1,510 (6.9%) were called active. 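Active includes knockdowns raising or lowering LDL uptake; positive z-scores mean more uptake, negative mean less.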 Reagents against one gene are numbered here. Reagent sequences are not shown.

- Assay: 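Genes whose knockdown alters LDL uptake in liver cancer cells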 (primary screen)
- Cell system: human Huh7 hepatoma cells
- Knock-down reagent: siRNA pool against human genes, 18 nM
- Duration: about 2 to 2.5 days of knockdown, then 8 h LDL uptake
- Treatment: DiI-labelled LDL at 30 µg/ml for 8 h, in lipoprotein-deficient serum medium
- Detection: 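Per-cell DiI-LDL intensity by automated imaging; well means scaled to the plate median and given as a robust z-score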
- Direction: robust z-score: higher = more LDL uptake after knockdown
- Rule for the call: 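Active when two or more replicates show a robust z-score above 2 or below -2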

Gene	reagent	robust z-score, replicate 1	robust z-score, replicate 2	robust z-score, replicate 3	activity call
LINC02875 (long independently transcribed non-coding RNA 2875)	1	-0.814	-0.981	-1.02	inactive
NR5A1 (nuclear receptor subfamily 5 group A member 1)	1	-0.775	-0.0585	-0.779	inactive
TMEM238L (transmembrane protein 238 like)	1	-0.573	-0.253	-0.626	inactive
MYO1A (myosin IA)	1	0.546	2.68	0.657	inactive
LOC440976 (retired record)	1	-0.75	-0.341	-0.13	inactive
PVALEF (parvalbumin like EF-hand containing)	1	-0.696	-0.177	-0.269	inactive
CDH20 (cadherin 20)	1	0.273	0.164	0.112	inactive
ZNF790 (zinc finger protein 790)	1	-0.352	-0.123	-0.446	inactive
CPA5 (carboxypeptidase A5)	1	-0.878	-1.09	-1.06	inactive
H2AC14 (H2A clustered histone 14)	1	2.28	5.33	3.33	active
FGFR2 (fibroblast growth factor receptor 2)	1	0	-0.479	-0.704	inactive
ZNF138 (zinc finger protein 138)	1	0.659	-0.0265	0.232	inactive
ZNF749 (zinc finger protein 749)	1	-0.553	-0.682	-0.666	inactive
LCAT (lecithin-cholesterol acyltransferase)	1	-0.169	-0.396	-0.588	inactive
TTC17 (tetratricopeptide repeat domain 17)	1	0.327	-0.946	0.595	inactive
RAVER1 (ribonucleoprotein, PTB binding 1)	1	1.27	0.568	0.978	inactive
ACACA (acetyl-CoA carboxylase alpha)	1	-0.285	-1.24	-1.18	inactive
NOP58 (NOP58 ribonucleoprotein)	1	-1.34	-1.26	-1.47	inactive
PGRMC2 (progesterone receptor membrane component 2)	1	0.459	0.48	0.442	inactive
IGF2R (insulin like growth factor 2 receptor)	1	0.0225	0.192	0.126	inactive
ARHGEF26 (Rho guanine nucleotide exchange factor 26)	1	-1.22	-0.618	1.08	inactive
TRIM71 (tripartite motif containing 71)	1	-0.109	2.2	1.53	inactive
SLC15A2	1	0.95	0.543	0.529	inactive
SDR42E1 (short chain dehydrogenase/reductase family 42E, member 1)	1	1.09	-0.216	0.809	inactive
GJB6 (gap junction protein beta 6)	1	-0.261	0.309	0.641	inactive
PCF11 (PCF11 cleavage and polyadenylation factor subunit)	1	-0.328	-1.48	-0.271	inactive
SLC30A6	1	1.04	2.46	0.43	inactive
TNNI1 (troponin I1, slow skeletal type)	1	0.165	-1.56	1.12	inactive
PRAMEF8 (PRAME family member 8)	1	0.728	0.668	0.619	inactive
PRAMEF8 (PRAME family member 8)	2	-0.362	-0.424	0.0976	inactive
COX8A (cytochrome c oxidase subunit 8A)	1	2.66	2.78	2.17	active
CLDN16 (claudin 16)	1	-0.131	-0.351	0.192	inactive
SLC23A1	1	0.993	0.628	0.962	inactive
CPSF1 (cleavage and polyadenylation specific factor 1)	1	-4.18	-2.64	-1.72	active
MOGAT1 (monoacylglycerol O-acyltransferase 1)	1	-0.0301	-0.331	-0.471	inactive
ZDHHC12 (zDHHC palmitoyltransferase 12)	1	0.765	-0.119	0.925	inactive
ACAD10 (acyl-CoA dehydrogenase family member 10)	1	1.39	1.14	1.22	inactive
PNMA8B (PNMA family member 8B)	1	1.41	1.95	2.18	inactive
CFH (complement factor H)	1	1.24	-0.76	0.625	inactive
YIPF3 (Yip1 domain family member 3)	1	0.754	0.957	-0.44	inactive
ACTN2 (actinin alpha 2)	1	1.2	1.74	0.518	inactive
MRPL23 (mitochondrial ribosomal protein L23)	1	2.45	1.58	2.69	active
YPEL3 (yippee like 3)	1	-0.353	-0.0134	-0.242	inactive
NIT2 (nitrilase family member 2)	1	-0.063	-0.0629	0.183	inactive
KRT40 (keratin 40)	1	-0.153	-0.545	-0.397	inactive
BTBD10 (BTB domain containing 10)	1	-1.11	-0.107	-0.795	inactive
JAZF1 (JAZF zinc finger 1)	1	-0.826	-0.943	-0.696	inactive
PTPRVP (protein tyrosine phosphatase receptor type V, pseudogene)	1	-0.00249	0.73	0.215	inactive
LINC03086 (long independently transcribed non-coding RNA 3086)	1	-0.126	-0.232	0.091	inactive
BHMT (betaine--homocysteine S-methyltransferase)	1	-0.368	-0.0772	-0.227	inactive
PJA1 (praja ring finger ubiquitin ligase 1)	1	-0.704	-0.283	-0.675	inactive
TUT7 (terminal uridylyl transferase 7)	1	-0.193	0.439	0.0991	inactive
AKAP3 (A-kinase anchoring protein 3)	1	-0.543	0.166	0.593	inactive
LOC388914 (retired record)	1	-0.0816	0.274	0.199	inactive
ISG20 (interferon stimulated exonuclease gene 20)	1	-0.723	-0.773	-0.355	inactive
ZNF644 (zinc finger protein 644)	1	1.29	0.769	1.04	inactive
BLTP3B (bridge-like lipid transfer protein family member 3B)	1	-1.24	-1.36	-1.08	inactive
LINC00115 (long independently transcribed non-coding RNA 115)	1	-0.485	-0.14	-0.303	inactive
SEC16B (SEC16 homolog B, endoplasmic reticulum export factor)	1	-1.59	-0.686	-1.04	inactive
GORAB (golgin, RAB6 interacting)	1	-0.231	-1.04	-1.08	inactive
ZC3HC1 (zinc finger C3HC-type containing 1)	1	1.22	1.08	0.18	inactive
C1orf87 (chromosome 1 open reading frame 87)	1	0.118	-0.171	0.882	inactive
ATP6V0A1 (ATPase H+ transporting V0 subunit a1)	1	-1.26	-1.14	-1.36	inactive
AKR1B10 (aldo-keto reductase family 1 member B10)	1	-1.54	-1.51	-1.38	inactive
SELENOP (selenoprotein P)	1	0.225	-0.497	-1.14	inactive
SLC7A2	1	-1.59	-1.6	-1.71	inactive
HTR3D (5-hydroxytryptamine receptor 3D)	1	-0.842	-0.936	-1.22	inactive
ARHGAP35 (Rho GTPase activating protein 35)	1	-0.564	-0.627	-0.879	inactive
GMCL1 (germ cell-less 1, spermatogenesis associated)	1	1.14	0.794	2.25	inactive
USP6 (ubiquitin specific peptidase 6)	1	-0.0824	-0.0759	-0.3	inactive
ZNF622 (zinc finger protein 622)	1	0.0605	-0.302	-0.448	inactive
ACVRL1 (activin A receptor like type 1)	1	1.97	2.24	2.35	active
CHI3L2 (chitinase 3 like 2)	1	-1.17	2.95	2.32	active
KYNU (kynureninase)	1	0.0594	-0.829	-0.818	inactive
RNF6 (ring finger protein 6)	1	-0.232	-0.43	0.0961	inactive
RBBP6 (RB binding protein 6, ubiquitin ligase)	1	1.09	1.32	1.11	active
OR13D1 (olfactory receptor family 13 subfamily D member 1)	1	0.365	0.0718	0.316	inactive
UBE2E3 (ubiquitin conjugating enzyme E2 E3)	1	-0.00154	-1.07	-0.701	inactive
DKK2 (dickkopf Wnt signaling pathway inhibitor 2)	1	-1.32	1.8	0.232	inactive
RUSF1 (RUS family member 1)	1	-0.284	-0.237	-0.426	inactive
CARMIL2 (capping protein regulator and myosin 1 linker 2)	1	4.44	4.45	4.41	active
ENTPD8 (ectonucleoside triphosphate diphosphohydrolase 8)	1	-2.05	-2.34	-2.74	active
ABCF3 (ATP binding cassette subfamily F member 3)	1	-0.544	-0.811	-0.451	inactive
TXN2 (thioredoxin 2)	1	0.0298	-0.172	-0.129	inactive
SPEF2 (sperm flagellar and cilia associated 2)	1	-0.513	-0.342	-0.924	inactive
CEP164 (centrosomal protein 164)	1	2.59	2.11	1.8	active
H2BW2 (H2B.W histone 2)	1	-1.45	-1.36	-1.24	inactive

Hits, of those listed so far:
Gene	reagent	robust z-score, replicate 1	robust z-score, replicate 2	robust z-score, replicate 3	activity call
H2AC14 (H2A clustered histone 14)	1	2.28	5.33	3.33	active
COX8A (cytochrome c oxidase subunit 8A)	1	2.66	2.78	2.17	active
CPSF1 (cleavage and polyadenylation specific factor 1)	1	-4.18	-2.64	-1.72	active
MRPL23 (mitochondrial ribosomal protein L23)	1	2.45	1.58	2.69	active
ACVRL1 (activin A receptor like type 1)	1	1.97	2.24	2.35	active
CHI3L2 (chitinase 3 like 2)	1	-1.17	2.95	2.32	active
RBBP6 (RB binding protein 6, ubiquitin ligase)	1	1.09	1.32	1.11	active
CARMIL2 (capping protein regulator and myosin 1 linker 2)	1	4.44	4.45	4.41	active
ENTPD8 (ectonucleoside triphosphate diphosphohydrolase 8)	1	-2.05	-2.34	-2.74	active
CEP164 (centrosomal protein 164)	1	2.59	2.11	1.8	active
